For the assay, the target named is BRG1-mut (BRG1-K798R) (human). Put plainly: co-IP; total cell extract (150 mM NaCl, 20 mM Hepes pH 7.4, 0.5% Triton-X100, 0.1% DOC) of C33A transfected with BRG1-wt or BRG1-mut; BRG1 antibody, hnRNPL and SAM68; immunoblot.

These are yes or no findings as the source states them, for the method shown. In cells and extracts the contact can be indirect. A result given as binding can be weak or reduced; the word gives no strength.

B1: hnRNPL (protein, UniProt P14866 1-589)
chain: MSRRLLPRAEKRRRRLEQRQQPDEQRRRSGAMVKMAAAGGGGGGGRYYGGGSEGGRAPKRLKTDNAGDQHGGGGGGGGGAGAAGGGGGGENYDDPHKTPASPVVHIRGLIDGVVEADLVEALQEFGPISYVVVMPKKRQALVEFEDVLGACNAVNYAADNQIYIAGHPAFVNYSTSQKISRPGDSDDSRSVNSVLLFTILNPIYSITTDVLYTICNPCGPVQRIVIFRKNGVQAMVEFDSVQSAQRAKASLNGADIYSGCCTLKIEYAKPTRLNVFKNDQDTWDYTNPNLSGQGDPGSNPNKRQRQPPLLGDHPAEYGGPHGGYHSHYHDEGYGPPPPHYEGRRMGPPVGGHRRGPSRYGPQYGHPPPPPPPPEYGPHADSPVLMVYGLDQSKMNCDRVFNVFCLYGNVEKVKFMKSKPGAAMVEMADGYAVDRAITHLNNNFMFGQKLNVCVSKQPAIMPGQSYGLEDGSCSYKDFSESRNNRFSTPEQAAKNRIQHPSNVLHFFNAPLEVTEENFFEICDELGVKRPSSVKVFSGKSERSSSGLLEWESKSDALETLGFLNHYQMKNPNGPYPYTLKLCFSTAQHAS
Consider B1, for which the binding result is listed as “binds”.

(Values after paper PMC8960663.)
